Reference: article PMC7026264
For part of these data: A negative result means that nothing was seen under these conditions. For part of these data: At least one verdict rests on a figure or table, not on a statement of the authors. For part of these data: The comparison behind a weaker result is the experiment's own reference, which may not be listed here.

Protein sequences, listed by entry. Tags and fused reporters are not part of them. Residues count along the entry.
UniProt Q9FG77, 270-332 K284R: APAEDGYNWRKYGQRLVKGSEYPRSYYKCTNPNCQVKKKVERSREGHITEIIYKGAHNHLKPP
UniProt Q9FG77, 270-332 K284A: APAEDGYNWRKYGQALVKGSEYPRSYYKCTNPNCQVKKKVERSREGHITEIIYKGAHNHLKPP
UniProt Q9FG77, 270-332 K284Q: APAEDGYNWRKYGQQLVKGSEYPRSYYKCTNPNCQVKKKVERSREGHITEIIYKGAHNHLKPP

Legend:
Assay in all cases: EMSA
[1] = target: AtWRKY2-N K284R (Arabidopsis) (UniProt Q9FG77); settings: slight band; EMSA: 25 mM HEPES pH 7.0, 100 mM NaCl, 5% glycerol, 6 pmol DNA in 6 ul, 4 C 20 min; recombinant protein; residues 270-332; protein details: C-terminal His; label: 5' Cy3 on strand 1
[2] = target: AtWRKY2-N K284A (Arabidopsis) (UniProt Q9FG77); settings: EMSA: 25 mM HEPES pH 7.0, 100 mM NaCl, 5% glycerol, 6 pmol DNA in 6 ul, 4 C 20 min; recombinant protein; residues 270-332; protein details: C-terminal His; label: 5' Cy3 on strand 1
[3] = target: AtWRKY2-N K284Q (Arabidopsis) (UniProt Q9FG77); settings: EMSA: 25 mM HEPES pH 7.0, 100 mM NaCl, 5% glycerol, 6 pmol DNA in 6 ul, 4 C 20 min; recombinant protein; residues 270-332; protein details: C-terminal His; label: 5' Cy3 on strand 1

CGCCTTTGACCAGCGC (double strand) [W-box DNA for EMSA]
binding result [1]: binds more weakly | binding result [2]: no binding | binding result [3]: no binding
